# In the supplement of paper PMC4604168 (melanoma cell lines):
# This is one part of the list. Repeats are few or missing, and single values can be far off.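 The apoptosis fraction was the count of cleaved-PARP antibody-stained nuclei relative to all DNA-stained nuclei, imaged in 1,536-well plates. Screening doses were set so most cells survived, and baseline and induced cleaved-PARP levels vary greatly across cell lines.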
# Assays:
# Assay in all cases: cleaved PARP positive nuclei fraction relative to DMSO control; melanoma cells; higher = more apoptosis
# Settings in all cases: library dose: low library concentration; 72 h
# 501Mel = tested on: 501Mel
# A101D = tested on: A101D
# A2058 = tested on: A2058
# A375 = tested on: A375
# C32 = tested on: C32
# CBRC008 = tested on: CBRC008 (line from a melanoma biopsy)
# CBRC014 = tested on: CBRC014 (line from a melanoma biopsy)
# CBRC016 = tested on: CBRC016 (line from a melanoma biopsy)
# CBRC017 = tested on: CBRC017 (line from a melanoma biopsy)
# CBRC034 = tested on: CBRC034 (line from a melanoma biopsy)
# COLO792 = tested on: COLO792
# COLO800 = tested on: COLO800
# COLO829 = tested on: COLO829
# G361 = tested on: G361
# IPC-298 = tested on: IPC-298
# IST-MEL1 = tested on: IST-MEL1
# LB2518-MEL = tested on: LB2518-MEL
# LOXIMVI = tested on: LOXIMVI
# MEL-HO = tested on: MEL-HO
SMILES,cleaved PARP positive nuclei fraction (501Mel),cleaved PARP positive nuclei fraction (A101D),cleaved PARP positive nuclei fraction (A2058),cleaved PARP positive nuclei fraction (A375),cleaved PARP positive nuclei fraction (C32),cleaved PARP positive nuclei fraction (CBRC008),cleaved PARP positive nuclei fraction (CBRC014),cleaved PARP positive nuclei fraction (CBRC016),cleaved PARP positive nuclei fraction (CBRC017),cleaved PARP positive nuclei fraction (CBRC034),cleaved PARP positive nuclei fraction (COLO792),cleaved PARP positive nuclei fraction (COLO800),cleaved PARP positive nuclei fraction (COLO829),cleaved PARP positive nuclei fraction (G361),cleaved PARP positive nuclei fraction (IPC-298),cleaved PARP positive nuclei fraction (IST-MEL1),cleaved PARP positive nuclei fraction (LB2518-MEL),cleaved PARP positive nuclei fraction (LOXIMVI),cleaved PARP positive nuclei fraction (MEL-HO)
"N#CC[C@H](C1CCCC1)n1cc(-c2ncnc3[nH]ccc23)cn1 [ruxolitinib] + Cc1nc(Nc2ncc(C(=O)Nc3c(C)cccc3Cl)s2)cc(N2CCN(CCO)CC2)n1 [dasatanib] (first compound 1 µM, partner dose 0.004 µM)",76.7%,132%,121%,41.9%,81.1%,44.1%,109%,125%,115%,192%,107%,92.7%,68.8%,100%,84.6%,135%,214%,163%,81%
"Cc1ccc(Nc2nccc(N(C)c3ccc4c(C)n(C)nc4c3)n2)cc1S(N)(=O)=O [Pazopanib] + CN1CCN(c2ccc3nc(-c4c(N)c5c(F)cccc5[nH]c4=O)[nH]c3c2)CC1 [Dovitinib] (first compound 0.4 µM, partner dose 0.1 µM)",130%,70.6%,158%,86.2%,78.9%,132%,99.7%,83.9%,121%,122%,89.9%,73.6%,46.1%,202%,135%,91.2%,170%,111%,58.9%
"CC[C@]1(O)C[C@H]2CN(CCc3c([nH]c4ccccc34)[C@@](C(=O)OC)(c3cc4c(cc3OC)N(C=O)[C@H]3[C@@](O)(C(=O)OC)[C@H](OC(C)=O)[C@]5(CC)C=CCN6CC[C@]43[C@@H]65)C2)C1 [vincristine] + Cn1nnc2c(C(N)=O)ncn2c1=O [temozolomide] (first compound 0.0001 µM, partner dose 2 µM)",285%,203%,469%,196%,80.6%,96.4%,102%,94.1%,107%,53.4%,81%,101%,149%,85.7%,29.9%,65.2%,103%,151%,96.6%
"CC[C@]1(O)C[C@H]2CN(CCc3c([nH]c4ccccc34)[C@@](C(=O)OC)(c3cc4c(cc3OC)N(C=O)[C@H]3[C@@](O)(C(=O)OC)[C@H](OC(C)=O)[C@]5(CC)C=CCN6CC[C@]43[C@@H]65)C2)C1 [vincristine] + CCCCCCCCCCCCCCCCCCOP(=O)([O-])OC1CC[N+](C)(C)CC1 [Perifosine] (first compound 0.0001 µM, partner dose 0.4 µM)",83.5%,47.3%,318%,123%,87%,195%,102%,201%,114%,34.9%,114%,71.2%,178%,195%,130%,131%,130%,126%,201%
"Cc1ccc(Nc2nccc(N(C)c3ccc4c(C)n(C)nc4c3)n2)cc1S(N)(=O)=O [Pazopanib] + CO[C@H]1C[C@@H]2CC[C@@H](C)[C@@](O)(O2)C(=O)C(=O)N2CCCC[C@H]2C(=O)O[C@H]([C@H](C)C[C@@H]2CC[C@@H](OCCO)[C@H](OC)C2)CC(=O)[C@H](C)/C=C(\C)[C@@H](O)[C@@H](OC)C(=O)[C@H](C)C[C@H](C)/C=C/C=C/C=C/1C [everolimus] (first compound 0.4 µM, partner dose 0.02 µM)",281%,33.7%,47.7%,868%,75.4%,191%,102%,214%,93.5%,36.5%,184%,63.1%,88.9%,230%,230%,75.8%,138%,357%,182%
"CCCCCCCCCCCCCCCCCCOP(=O)([O-])OC1CC[N+](C)(C)CC1 [Perifosine] + Cc1cc(Nc2cc(N3CCN(C)CC3)nc(/C=C/c3ccccc3)n2)n[nH]1 [ENMD2076] (first compound 0.4 µM, partner dose 0.04 µM)",168%,119%,320%,272%,80%,165%,169%,66.8%,83.8%,33.6%,85.4%,135%,128%,113%,83.6%,116%,52%,75.5%,78.8%
"O=C(Nc1cc(C(F)(F)F)cc(C(F)(F)F)c1)c1cc(Cl)ccc1O + CNC(=O)c1cc(Oc2ccc(NC(=O)Nc3ccc(Cl)c(C(F)(F)F)c3)cc2)ccn1 [sorafenib] (first compound 0.016 µM, partner dose 0.4 µM)",92.4%,142%,43.9%,85.9%,80.1%,81.4%,98.5%,83.5%,105%,121%,56.7%,97.7%,105%,128%,92.2%,85.8%,27.5%,127%,133%
